Measurements published in publication PMC11272733, “In vitro assessment of thyroid peroxidase inhibition by chemical exposure: comparison of cell models and detection methods” (Archives of Toxicology, 2024).

Assay: Nonspecific influence of chemicals on fluorescence signal (resorufin + H2O2, no lysate)
[1] = 100 uM chemical, 0.3 µM resorufin, 40 µM H2O2, 30 min 37°C, vs solvent control
[2] = 200 uM chemical, 0.3 µM resorufin, 40 µM H2O2, 30 min 37°C, vs solvent control
[3] = two highest tested concentrations, resorufin fluorescence

| Compound | Mean RFR (Relative Fluorescence Rate) [1] [%] | Mean RFR (Relative Fluorescence Rate) [2] [%] | other results |
| --- | --- | --- | --- |
| O=S(=O)(O)C(F)(F)C(F)(F)C(F)(F)C(F)(F)C(F)(F)C(F)(F)C(F)(F)C(F)(F)F [PFOS, Perfluorooctane sulfonate] | 89 | 88 | slight signal inhibition/quenching [3]: less than 20% |
| O=C(c1ccc(O)cc1O)c1ccc(O)cc1O [BP2, 2,2′-4,4′-tetrahydroxy benzophenone] | 101 | 106 |  |
| Oc1cccc(O)c1 [RSC, Resorcinol] | 98 | 99 |  |
| CCCCOC(=O)c1ccccc1C(=O)OCCCC [DBP, Dibutylphthalate] | 93 | 96 |  |
| CC(C)(c1cc(Br)c(O)c(Br)c1)c1cc(Br)c(O)c(Br)c1 [TBBPA, Tetrabromobisphenol A] |  |  | Mean RFR (Relative Fluorescence Rate): 94% and 83%; slight signal inhibition/quenching: less than 20% |
| O=P(Oc1ccccc1)(Oc1ccccc1)Oc1ccccc1 [TPP, Triphenyl phosphate] | 93 | 92 |  |
| NC(=O)N1c2ccccc2C=Cc2ccccc21 [CBZ, Carbamazepine, reference compound] | 106 | 104 |  |
| CCC(Cc1c(I)cc(I)c(N)c1I)C(=O)O (centres unmarked) [IOP, Iopanoic acid, reference compound] | 103 | 97 |  |
| CC(C)(c1ccc(O)cc1)c1ccc(O)cc1 [BPA, Bisphenol A] | 103 | 104 |  |
| O=C(O)C(F)(F)C(F)(F)C(F)(F)C(F)(F)C(F)(F)C(F)(F)C(F)(F)F [PFOA, Perfluorooctanoic acid] | 97 | 95 |  |
| NC(Cc1cc(I)c(Oc2cc(I)c(O)c(I)c2)c(I)c1)C(=O)O [T4, 3,3′,5,5″-Tetraiodo-L-thyronine, reference compound] |  |  | Mean RFR (Relative Fluorescence Rate) (1 uM chemical, 0.3 µM resorufin, 40 µM H2O2): 103%; Mean RFR (Relative Fluorescence Rate) (2 uM chemical, 0.3 µM resorufin, 40 µM H2O2): 99% |
| CC1(C)S[C@@H]2[C@H](NC(=O)[C@H](N)c3ccccc3)C(=O)N2[C@H]1C(=O)O [AMP, Ampicillin, reference compound] | 100 | 103 |  |
| Oc1cc(Cl)ccc1Oc1ccc(Cl)cc1Cl [TCS, Triclosan] | 84 | 83 | slight signal inhibition/quenching [3]: less than 20% |
| [O-][Cl+3]([O-])([O-])O [PCL, Perchlorate] | 108 | 106 |  |
| Cn1cc[nH]c1=S [MMI, Methimazole, reference compound] | 106 | 104 |  |
| S=C1NCCN1 [ETU, Ethylene thiourea] |  |  | Mean RFR (Relative Fluorescence Rate): 109% and 110% |
| CC1=C[C@H]2O[C@@H]3[C@H](O)C[C@](C)([C@@]2(CO)[C@H](O)C1=O)[C@]31CO1 [DON, Deoxynivalenol] | 103 | 109 |  |

Several values for one entry are separate records, joined by “and”; a condition that tells them apart may be missing. Equal values may be shown once. Read-outs that look alike come from different tables or passages of the source.
